Results reported in article PMC12867838.
No constants are given. Whether binding was seen depends on the method and setting. Binding seen in cells or lysates may run through a third protein. Some results given as binding are weak or reduced against the parent protein; the word gives no strength. Tags and fused reporters may be left off the sequences shown.

Protein sequences, listed by entry. Tags and fused reporters are not part of them. Residues count along the entry.
UniProt Q9NZQ7, residues 19-290: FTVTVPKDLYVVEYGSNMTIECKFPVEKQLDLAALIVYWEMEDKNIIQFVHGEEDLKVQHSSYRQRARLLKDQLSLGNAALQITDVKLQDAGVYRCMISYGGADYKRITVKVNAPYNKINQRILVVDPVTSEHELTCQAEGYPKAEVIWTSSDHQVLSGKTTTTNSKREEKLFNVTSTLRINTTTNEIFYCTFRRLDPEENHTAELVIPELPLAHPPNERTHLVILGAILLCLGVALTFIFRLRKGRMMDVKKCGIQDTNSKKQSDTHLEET

Target: programmed cell death ligand 1 (PD-L1), HA- or Flag-tagged (UniProt Q9NZQ7)
Assay: co-IP; NP40 lysates of co-transfected cells (293T, Panc-1, Patu-8988), 1-2 mg whole cell lysate incubated with bead-conjugated anti-HA or anti-Flag antibodies overnight at 4°C, immunoblot; cells treated with 10 μM MG132 for 6 h before harvesting

B1: F-box protein 9 (FBXO9), HA- or Flag-tagged (protein, UniProt Q9UK97 1-447)
chain: MPDIIWVFPPQAEAEEDCHSDTVRADDDEENESPAETDLQAQLQMFRAQWMFELAPGVSSSNLENRPCRAARGSLQKTSADTKGKQEQAKEEKARELFLKAVEEEQNGALYEAIKFYRRAMQLVPDIEFKITYTRSPDGDGVGNSYIEDNDDDSKMADLLSYFQQQLTFQESVLKLCQPELESSQIHISVLPMEVLMYIFRWVVSSDLDLRSLEQLSLVCRGFYICARDPEIWRLACLKVWGRSCIKLVPYTSWREMFLERPRVRFDGVYISKTTYIRQGEQSLDGFYRAWHQVEYYRYIRFFPDGHVMMLTTPEEPQSIVPRLRTRNTRTDAILLGHYRLSQDTDNQTKVFAVITKKKEEKPLDYKYRYFRRVPVQEADQSFHVGLQLCSSGHQRFNKLIWIHHSCHITYKSTGETAVSAFEIDKMYTPLFFARVRSYTAFSERPL
- binding: binds
